Measured values from article PMC3056739.
No constants are given. Whether binding was seen depends on the method and setting. Some entries that bind do so weakly or less than the wild type. For some assays here: Sequences can lack the tags named with a protein.

Sequences of proteins named here, by UniProt entry; tags and fusion partners are left off. Residues count along the entry.
UniProt P02545, residues 66-230: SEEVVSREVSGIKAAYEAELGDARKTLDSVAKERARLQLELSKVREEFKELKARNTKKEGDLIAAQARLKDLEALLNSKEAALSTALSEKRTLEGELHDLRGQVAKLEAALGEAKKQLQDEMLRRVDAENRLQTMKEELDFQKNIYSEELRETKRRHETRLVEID
UniProt P03070, residues 84-708: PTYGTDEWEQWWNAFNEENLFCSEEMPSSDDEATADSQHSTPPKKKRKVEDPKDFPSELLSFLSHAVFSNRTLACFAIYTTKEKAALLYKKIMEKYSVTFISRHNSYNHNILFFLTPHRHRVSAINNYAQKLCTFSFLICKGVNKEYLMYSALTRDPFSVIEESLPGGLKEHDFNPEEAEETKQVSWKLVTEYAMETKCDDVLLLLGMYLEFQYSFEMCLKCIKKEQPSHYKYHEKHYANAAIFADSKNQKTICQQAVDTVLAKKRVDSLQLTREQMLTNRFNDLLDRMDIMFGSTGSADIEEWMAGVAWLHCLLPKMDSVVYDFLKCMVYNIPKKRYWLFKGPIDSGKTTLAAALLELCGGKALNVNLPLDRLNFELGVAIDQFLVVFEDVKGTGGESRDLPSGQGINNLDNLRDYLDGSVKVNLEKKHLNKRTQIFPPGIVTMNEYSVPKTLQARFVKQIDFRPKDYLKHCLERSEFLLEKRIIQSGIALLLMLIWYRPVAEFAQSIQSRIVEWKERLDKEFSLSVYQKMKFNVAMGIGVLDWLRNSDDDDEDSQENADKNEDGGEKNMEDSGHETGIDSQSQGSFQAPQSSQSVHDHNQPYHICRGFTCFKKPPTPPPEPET

T1: Mycobacterium tuberculosis SigF (Rv3286c), Gal4 DNA-binding domain fusion from pGB3286c (M. tuberculosis) (UniProt P9WGI3)
T1 sequence: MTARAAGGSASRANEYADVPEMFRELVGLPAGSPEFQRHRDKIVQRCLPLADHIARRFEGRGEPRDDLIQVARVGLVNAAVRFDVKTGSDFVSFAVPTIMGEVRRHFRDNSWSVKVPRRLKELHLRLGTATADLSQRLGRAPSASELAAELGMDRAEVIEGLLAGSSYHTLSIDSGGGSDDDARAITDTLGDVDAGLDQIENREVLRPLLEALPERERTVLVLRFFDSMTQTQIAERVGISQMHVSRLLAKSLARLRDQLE

B1: Mycobacterium tuberculosis UsfX (Rv3287c), Gal4 activation domain fusion from pGA3287c (protein, UniProt P9WGX7 1-168)
chain: MTDQLEDQTQGGSTVDRSLPGGCMADSDLPTKGRQRGVRAVELNVAARLENLALLRTLVGAIGTFEDLDFDAVADLRLAVDEVCTRLIRSALPDATLRLVVDPRKDEVVVEASAACDTHDVVAPGSFSWHVLTALADDVQTFHDGRQPDVAGSVFGITLTARRAASSR

Columns and labels:
[1] = biological target: Human lamin C (66-230), Gal4 DNA-binding domain fusion from pGBKT7-Lam (human) (UniProt P02545); experiment: two-hybrid
[2] = biological target: T1, Mycobacterium tuberculosis SigF (Rv3286c), Gal4 DNA-binding domain fusion from pGB3286c (M. tuberculosis); experiment: two-hybrid

Row | Molecule | binding [1] | binding [2]
1 | SV40 large T-antigen (84-708), Gal4 activation domain fusion from pGADT7-T (from UniProt P03070 84-708) (domain or fragment) | no binding | 
2 | B1 |  | binds
